Binding data for 1 molecule are collected here from PMC8363623.

By UniProt entry, the sequences of proteins in these tests, tags left out.
UniProt P06700: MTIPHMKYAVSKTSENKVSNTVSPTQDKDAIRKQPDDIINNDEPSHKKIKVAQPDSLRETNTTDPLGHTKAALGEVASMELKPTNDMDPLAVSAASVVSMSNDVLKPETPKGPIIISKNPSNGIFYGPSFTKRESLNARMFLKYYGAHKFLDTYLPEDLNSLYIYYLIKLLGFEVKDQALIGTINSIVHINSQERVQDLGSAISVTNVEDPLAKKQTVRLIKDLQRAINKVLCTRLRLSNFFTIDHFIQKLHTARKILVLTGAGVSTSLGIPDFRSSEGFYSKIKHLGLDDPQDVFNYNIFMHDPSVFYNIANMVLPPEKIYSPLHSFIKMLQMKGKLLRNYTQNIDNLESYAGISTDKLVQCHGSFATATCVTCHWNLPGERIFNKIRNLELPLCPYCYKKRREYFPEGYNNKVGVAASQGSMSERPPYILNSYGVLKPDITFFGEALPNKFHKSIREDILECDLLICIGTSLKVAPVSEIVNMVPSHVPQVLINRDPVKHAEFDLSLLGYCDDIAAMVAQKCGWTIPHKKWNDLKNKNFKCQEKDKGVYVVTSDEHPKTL

These are yes or no findings as the source states them, for the method shown. In cells and extracts the contact can be indirect. Some binding calls cover weakened binding; strength is not graded here.

Experiment [1] has as its target T1, Heh1 (as in the co-immunoprecipitations of the supplementary figures) (S. cerevisiae) (UniProt Q03707).
T1 sequence: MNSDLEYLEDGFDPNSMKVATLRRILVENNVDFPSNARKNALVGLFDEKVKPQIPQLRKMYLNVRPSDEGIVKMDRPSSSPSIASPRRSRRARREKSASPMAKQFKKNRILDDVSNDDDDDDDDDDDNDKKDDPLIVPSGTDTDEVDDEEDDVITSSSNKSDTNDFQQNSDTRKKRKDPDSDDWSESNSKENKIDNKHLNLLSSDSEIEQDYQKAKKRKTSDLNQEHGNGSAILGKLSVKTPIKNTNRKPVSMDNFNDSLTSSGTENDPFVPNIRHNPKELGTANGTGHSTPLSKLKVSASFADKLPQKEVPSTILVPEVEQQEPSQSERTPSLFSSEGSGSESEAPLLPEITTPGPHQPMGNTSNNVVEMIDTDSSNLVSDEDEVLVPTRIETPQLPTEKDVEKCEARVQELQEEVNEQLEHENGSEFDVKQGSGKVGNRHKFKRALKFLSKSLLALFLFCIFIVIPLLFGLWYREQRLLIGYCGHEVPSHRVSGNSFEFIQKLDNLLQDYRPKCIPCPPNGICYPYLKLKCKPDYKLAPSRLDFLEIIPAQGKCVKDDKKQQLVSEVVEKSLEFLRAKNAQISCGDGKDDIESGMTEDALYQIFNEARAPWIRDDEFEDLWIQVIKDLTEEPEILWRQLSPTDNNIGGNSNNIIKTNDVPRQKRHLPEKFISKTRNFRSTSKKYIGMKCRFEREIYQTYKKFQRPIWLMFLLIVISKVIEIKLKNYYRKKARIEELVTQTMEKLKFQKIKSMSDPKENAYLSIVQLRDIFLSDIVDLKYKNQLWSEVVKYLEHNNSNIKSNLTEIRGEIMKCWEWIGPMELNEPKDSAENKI
The experiment is described as follows: co-IP; yeast cell lysates (50 mM Tris pH 7.5, 150 mM NaCl, 10% glycerol, 1 mM EDTA, 0.5% NP-40) on antiHA-sepharose, GFP-Trap or IgG-agarose beads, 1.5 h at 4 °C, immunoblot; cells also with cdc14-3 at 37 °C, phosphatase inhibitors, Net1 depletion, nur1Pmim, SUMO overexpression (WT, FAIA, KRall), Cdc48 mutants, STUbL deletions or I-PpoI rDNA damage.

Another experiment addresses Sir2 (S. cerevisiae) (UniProt P06700). Described as above.

B1: Nur1 (as in the co-immunoprecipitations of the supplementary figures) (protein, UniProt Q12066 1-484)
chain: MGSNDLINEAYDDSEVVGEERESKSAWMKRWYQLLTSPLDLQLVINEKLEMINWDAYAKSLAKPLGNFLTILFFIIRLLQDNLIKPNYYKLNVKSGAFDLSKSNKLKEFDYLWEISSSFQNNNQFYAFQSWYFVTLRFLNNLFRFTIFILLSLNLYVSCKFMFGYFKTYNLFHLKKEFNSPNLTKHNLKDLSKEYYEDIYKQSLWSMLKHFFRGSRDDGPHVNQNEDEIFFQLRKWIPTNFMINLFVSFSPTAIVFLSFSDVSFTSAIAIVFHQYILDYIITKRFQRSVDDDLILSSAALQEYEDKHIMARINQCSNIDTLSSAMGTRSKTPRIFTTHSLCGEEIREVYNYEKREFEALPKMTESVPGSRETRIKDYGGISQVSDHQSHPIGFHYSPRMSPYYRDKVLDNNLAQSSSNENLEKGGAYLPNQDQNRPSKSLSPLRKTPLSARQKRFEGSEFNVLNKNDINSILRSPKKKKNYHKR
On to B1, for which the binding entry (in experiment [1]; in the experiment with Sir2 (S. cerevisiae)) was “binds” in each case.
